# Screening data, single-dose tests

Chains of the proteins cited; added tags and fusions are not shown. Residues count along the entry.
UniProt P9WPC5, whole entry: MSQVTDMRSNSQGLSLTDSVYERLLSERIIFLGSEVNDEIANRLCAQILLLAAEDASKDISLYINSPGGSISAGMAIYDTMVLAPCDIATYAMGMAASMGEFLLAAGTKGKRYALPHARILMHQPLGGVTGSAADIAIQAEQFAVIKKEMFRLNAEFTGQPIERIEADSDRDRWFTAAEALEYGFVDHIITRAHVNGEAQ
UniProt P9WPC3, whole entry partner: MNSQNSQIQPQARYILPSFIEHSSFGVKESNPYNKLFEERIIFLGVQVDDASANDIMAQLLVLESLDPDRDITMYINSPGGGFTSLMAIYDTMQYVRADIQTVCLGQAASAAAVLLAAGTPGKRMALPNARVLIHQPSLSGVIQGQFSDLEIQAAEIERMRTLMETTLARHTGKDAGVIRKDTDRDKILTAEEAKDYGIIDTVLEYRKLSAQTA
UniProt Q4DA54, 1-478: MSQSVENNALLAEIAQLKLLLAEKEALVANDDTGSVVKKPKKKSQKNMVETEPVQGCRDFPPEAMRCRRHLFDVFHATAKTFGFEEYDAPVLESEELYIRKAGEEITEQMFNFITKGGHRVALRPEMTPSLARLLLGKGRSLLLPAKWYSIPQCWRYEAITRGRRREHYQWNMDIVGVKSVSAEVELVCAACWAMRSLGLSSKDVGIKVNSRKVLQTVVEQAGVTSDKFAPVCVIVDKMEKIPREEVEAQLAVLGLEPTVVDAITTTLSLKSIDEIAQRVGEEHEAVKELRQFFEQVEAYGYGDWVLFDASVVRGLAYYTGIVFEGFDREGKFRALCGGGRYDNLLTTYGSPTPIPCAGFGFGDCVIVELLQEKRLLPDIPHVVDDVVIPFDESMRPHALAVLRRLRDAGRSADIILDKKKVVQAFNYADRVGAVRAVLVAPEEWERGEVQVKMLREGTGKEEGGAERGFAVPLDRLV
UniProt I6X8D2, whole entry: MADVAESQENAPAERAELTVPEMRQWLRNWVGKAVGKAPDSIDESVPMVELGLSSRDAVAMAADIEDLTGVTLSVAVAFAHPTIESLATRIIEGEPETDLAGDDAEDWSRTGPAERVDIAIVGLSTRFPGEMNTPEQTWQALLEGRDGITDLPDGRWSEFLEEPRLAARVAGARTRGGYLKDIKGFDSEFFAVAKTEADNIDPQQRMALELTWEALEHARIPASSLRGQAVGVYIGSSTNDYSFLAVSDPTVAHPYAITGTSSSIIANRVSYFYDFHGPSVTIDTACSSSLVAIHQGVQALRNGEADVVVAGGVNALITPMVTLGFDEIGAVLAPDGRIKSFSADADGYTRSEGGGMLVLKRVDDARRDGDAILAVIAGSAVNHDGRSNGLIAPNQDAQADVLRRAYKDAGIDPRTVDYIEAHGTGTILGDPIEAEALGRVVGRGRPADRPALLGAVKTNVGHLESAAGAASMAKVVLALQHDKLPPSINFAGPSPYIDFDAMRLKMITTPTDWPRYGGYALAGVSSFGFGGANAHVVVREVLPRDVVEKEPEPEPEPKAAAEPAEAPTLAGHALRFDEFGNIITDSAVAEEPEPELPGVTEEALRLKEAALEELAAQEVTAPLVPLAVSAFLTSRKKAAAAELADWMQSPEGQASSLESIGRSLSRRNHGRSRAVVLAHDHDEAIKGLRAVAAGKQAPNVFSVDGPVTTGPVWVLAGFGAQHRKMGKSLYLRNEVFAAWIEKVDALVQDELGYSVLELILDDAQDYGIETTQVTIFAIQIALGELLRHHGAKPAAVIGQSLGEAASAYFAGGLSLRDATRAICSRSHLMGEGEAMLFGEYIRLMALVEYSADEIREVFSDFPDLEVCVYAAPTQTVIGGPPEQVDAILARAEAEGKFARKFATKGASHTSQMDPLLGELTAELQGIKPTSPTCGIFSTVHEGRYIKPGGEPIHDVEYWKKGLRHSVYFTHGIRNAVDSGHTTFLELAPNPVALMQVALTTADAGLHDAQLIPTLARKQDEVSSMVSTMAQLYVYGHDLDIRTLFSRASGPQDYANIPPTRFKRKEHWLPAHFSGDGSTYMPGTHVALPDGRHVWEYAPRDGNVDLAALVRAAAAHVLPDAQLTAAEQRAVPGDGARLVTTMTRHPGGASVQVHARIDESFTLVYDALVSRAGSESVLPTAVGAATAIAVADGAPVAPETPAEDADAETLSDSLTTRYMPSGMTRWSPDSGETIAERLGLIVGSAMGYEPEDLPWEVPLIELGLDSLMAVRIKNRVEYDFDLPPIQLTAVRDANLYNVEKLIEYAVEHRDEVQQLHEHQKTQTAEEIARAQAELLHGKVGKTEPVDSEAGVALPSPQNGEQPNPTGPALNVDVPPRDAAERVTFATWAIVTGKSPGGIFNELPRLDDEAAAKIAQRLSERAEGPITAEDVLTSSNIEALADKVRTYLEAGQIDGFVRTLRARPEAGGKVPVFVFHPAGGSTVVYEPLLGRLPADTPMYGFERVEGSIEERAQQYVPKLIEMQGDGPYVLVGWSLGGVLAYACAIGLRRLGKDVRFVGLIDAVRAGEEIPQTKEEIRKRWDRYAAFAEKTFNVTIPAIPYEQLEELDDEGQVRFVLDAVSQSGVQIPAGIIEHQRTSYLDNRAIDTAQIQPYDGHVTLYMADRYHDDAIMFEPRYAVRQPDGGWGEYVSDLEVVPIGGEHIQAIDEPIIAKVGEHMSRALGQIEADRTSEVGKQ
UniProt Q8IDJ8, 1-583: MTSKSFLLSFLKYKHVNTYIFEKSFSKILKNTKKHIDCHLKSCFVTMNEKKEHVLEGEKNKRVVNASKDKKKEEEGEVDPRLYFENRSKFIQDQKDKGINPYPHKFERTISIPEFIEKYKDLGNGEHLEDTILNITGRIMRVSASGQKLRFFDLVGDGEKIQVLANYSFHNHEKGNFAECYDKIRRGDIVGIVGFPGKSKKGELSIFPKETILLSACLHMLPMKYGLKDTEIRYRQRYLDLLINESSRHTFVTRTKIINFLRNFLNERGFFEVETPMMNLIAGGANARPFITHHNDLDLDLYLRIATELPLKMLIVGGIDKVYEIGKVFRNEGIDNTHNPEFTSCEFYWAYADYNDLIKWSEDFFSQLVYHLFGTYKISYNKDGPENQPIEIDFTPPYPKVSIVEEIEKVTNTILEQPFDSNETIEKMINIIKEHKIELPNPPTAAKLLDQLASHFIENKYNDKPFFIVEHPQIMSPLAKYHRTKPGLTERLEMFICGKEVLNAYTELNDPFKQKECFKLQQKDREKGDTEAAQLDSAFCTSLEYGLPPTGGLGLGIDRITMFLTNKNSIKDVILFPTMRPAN

From ChEMBL document CHEMBL3988442, “University of Dundee, Small-Polar-MMV Screening Library” (2021).

ClpP1P2: 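ClpP1P2, Mycobacterium tuberculosis (UniProt P9WPC5 and UniProt P9WPC3). Protease assay of ClpP1P2, read by the AMC dye that it sets free. Concentration: 50 µM. Direction is inferred from only a few compounds that gave an IC50; most scored high, so higher reads as stronger inhibition. Most other retested compounds had strongly negative values. Size under these conditions: about 69,000 compounds, about 10 of them at 50% or above in at least one test.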
Toxoplasma: 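Assay of Toxoplasma gondii numbers, read through their beta-galactosidase reporter with a colour substrate. Tested at 10 µM. The record gives no direction; the compounds picked for IC50 retests had high values, so higher reads as fewer parasites. Of about 67,000 compounds tested this way, about 260 (0.38%) reached 50% or more in at least one test.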
TcHisRS: 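Enzyme assay of histidyl-tRNA synthetase; the read-out is not stated. Target: Histidine-tRNA ligase, Trypanosoma cruzi CL Brener (UniProt Q4DA54). Tested at 30 µM. Direction is inferred from retests: higher values go with stronger inhibition. Size under these conditions: about 69,000 compounds, about 31 of them at 50% or above in at least one test.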
Pks13 thioesterase: 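Polyketide synthase Pks13, Mycobacterium tuberculosis (UniProt I6X8D2). Enzyme assay of the thioesterase domain of polyketide synthase 13; the read-out is not stated. Compounds at 30 µM. The record gives no direction; the compounds picked for IC50 retests had high values, so higher reads as stronger inhibition. Of about 67,000 compounds tested this way, about 300 (0.46%) reached 50% or more in at least one test.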
PfKRS1: 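Enzyme assay of the cytosolic lysyl-tRNA synthetase in 384-well plates, read by luminescence. Target: Lysine-tRNA ligase, Plasmodium falciparum 3D7 (UniProt Q8IDJ8). Tested at 30 µM. Direction is inferred from only a few compounds that gave an IC50; most scored high, so higher reads as stronger inhibition. Size under these conditions: about 69,000 compounds, about 49 of them at 50% or above in at least one test.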

Each number is a percent effect as filed. How 0% and 100% were set is not recorded. Most values in the screen are low, and negative values occur. This is an unselected part of the compounds tested. A dash means the value is not listed here; it may have been measured.

Compound	ClpP1P2	Toxoplasma	TcHisRS	Pks13 thioesterase	PfKRS1
CS(=O)(=O)c1cccc(C(N)c2ccc(F)cc2)c1 (configuration not stated)	-15.72	-2.307	0.5764	-10.27	0.5624
CN(Cc1ccccc1)CC(C)(C)NC(=O)c1ccc(C(N)=O)cn1	-1.248	-8.945	12.14	-14.64	4.519
COc1ccc(C(=O)N(C)Cc2nnc3ccccn23)c(OC)c1OC	-59.14	3.337	6.706	-16.99	0.9889
O=C(CCc1nc2ccccc2[nH]1)N1CCCC(n2cccn2)C1 (configuration not stated)	-27.48	-28.11	2.367	-26.51	0.5008
Cc1cc(CN2CCC3(CC2)CC(Nc2ncccn2)CO3)nn1C.O=C(O)C(F)(F)F (configuration not stated)	-	10.85	-	-	-
O=C(O)C(F)(F)F.O=C(O)C(F)(F)F.[H][C@@]12CCN(c3ccc(C)nn3)C[C@]1([H])[C@@H](CN(C)Cc1ccco1)OC2	-	-46.39	-	-	-
Cc1nc2c(c(=O)[nH]1)CCN(C(=O)c1[nH]nc3c1CC(C)CC3)C2 (configuration not stated)	13.57	35.52	8.173	6.255	-9.639
CS(=O)(=O)N1CCCCC1CCc1ccc(O)cc1 (configuration not stated)	-0.9125	-6.57	6.931	-11.65	5.292
CC(C)c1ccc(OCCC(=O)N2CCC(CC(N)=O)CC2)cc1	10.55	-19.48	2.662	5.851	-1.613
COc1ccc2[nH]c(C[C@@H]3C[C@@H](C(C)C)[C@H](CN(C)C)C=C3C)nc2c1	-8.004	-1.21	7.921	1.509	4.538
Cc1nc(C)n(C2CCCN(C(=O)c3ccnc(N(C)C)c3)C2)n1 (configuration not stated)	-23.35	2.584	4.373	-8.763	0.5428
Cc1cc(CN2CCCC(C)(CO)C2)ccc1F (configuration not stated)	-14.57	-0.2658	-2.542	-11.17	-1.745
CC/N=c1\nc(NCC)nc2n1C(O)(Nc1cc(Cl)ccc1Cl)CS2 (configuration not stated)	-197.4	-3.312	5	0.7925	0.7359
COCCN(C)C(=O)c1ccc2onc(-c3coc(C)n3)c2c1	-0.01383	0.7747	3.226	-9.924	9.91
CC(CC(=O)Nc1ncn(CC(=O)NCc2ccccc2)n1)C1CC1 (configuration not stated)	-4.986	-	11.49	-	7.79
Cc1cc(C)c2nc(CN3CCC(C#N)CC3)cc(O)c2c1	-1.958	-10.42	-119.4	-22.37	1.807
C[S+]([O-])c1nncn1CC(=O)c1ccc2c(c1)CCC2 (configuration not stated)	-0.5369	-26.72	2.326	-15.44	-2.258
OC1CCN(c2nc(-c3ccccc3)no2)CC1	-6.821	-19.67	8.621	7.903	3.584
O=S(=O)(NCCCn1cccn1)c1ccc2c(c1)CCC2	5.066	19.2	1.739	-9.266	7.521
CC(=O)Nc1ccc(CNCC(O)c2ccc(Cl)cc2)cc1 (configuration not stated)	3.282	-0.9302	13.33	2.235	5.855
COCC(=O)N1CCCCC1c1nccc(C)n1 (configuration not stated)	1.724	0.25	2.247	-21.75	-0.6161
O=S1(=O)COCCN1Cc1ccc(F)c(C(F)(F)F)c1	-0.4699	13.17	6.533	-2.307	4.547
CC1(C(=O)NC2CCCC2)CCCN(c2cnccn2)C1 (configuration not stated)	-2.809	2.521	5.323	5.994	1.732
COC(=O)CNC(=O)c1sc(-c2ccc(Cl)s2)nc1C	-272	12.14	4.373	51.92	1.014
CCc1ccc(C(=O)O)cc1S(=O)(=O)N(C)c1cccc(C#N)c1	-3.409	-1.512	4.865	11.38	5.085
Cn1cnc2c1CCN(Cc1csc(Cc3ccccc3)n1)C2	-8.243	-9.068	13.29	-7.28	2.566
[H][C@]12CC[C@@]3(N=C(C)NC3=O)[C@@]1([H])CN(CC(C)C)C2	-	-15.24	-	-	-
CN(C)CCN(C)C1CCCN(C(=O)c2ccc(Cn3ccnc3)o2)C1 (configuration not stated)	2.774	-3.092	0.4926	-25.78	7.852
O=C(O)C(F)(F)F.O=C1NCC[C@]12CN(Cc1nccs1)C[C@H]2c1ccccc1	-	0.028	-	-	-
CCCNC(=O)c1nc2c(o1)CN(C(C)=O)C2	-5.187	-24.91	4.926	-20.88	-0.7198
CCOCC1CN(C(=O)c2ccncc2)Cc2nn(C)cc21 (configuration not stated)	9.161	-	-3.784	-15.65	6.383
O=C1NC2(Cc3ccccc31)CN(CC1CCCC1)C2	-13.72	-5.203	1.775	-	-2.428
Cn1c(CS(=O)(=O)c2ccc(Cl)cc2)cc(=O)n(C)c1=O	31.85	-7.27	-5.682	-35.77	3.034
O=C(CCCC(=O)NCc1cccc(Br)c1)NCCN1CCCC1	-6.293	1.218	-0.8772	-10.19	-3.541
O=C(C1CCCCC1)N1CCC(n2nc(-c3ccco3)ccc2=O)CC1	-1.856	-9.85	5.319	45.34	-1.66

Repeated from the top, 4 entries:

{"compound": "CS(=O)(=O)c1cccc(C(N)c2ccc(F)cc2)c1", "stereo": "configuration not stated", "ClpP1P2": -15.72, "Toxoplasma": -2.307, "TcHisRS": 0.5764, "Pks13 thioesterase": -10.27, "PfKRS1": 0.5624}
{"compound": "CN(Cc1ccccc1)CC(C)(C)NC(=O)c1ccc(C(N)=O)cn1", "ClpP1P2": -1.248, "Toxoplasma": -8.945, "TcHisRS": 12.14, "Pks13 thioesterase": -14.64, "PfKRS1": 4.519}
{"compound": "COc1ccc(C(=O)N(C)Cc2nnc3ccccn23)c(OC)c1OC", "ClpP1P2": -59.14, "Toxoplasma": 3.337, "TcHisRS": 6.706, "Pks13 thioesterase": -16.99, "PfKRS1": 0.9889}
{"compound": "O=C(CCc1nc2ccccc2[nH]1)N1CCCC(n2cccn2)C1", "stereo": "configuration not stated", "ClpP1P2": -27.48, "Toxoplasma": -28.11, "TcHisRS": 2.367, "Pks13 thioesterase": -26.51, "PfKRS1": 0.5008}